Data taken from publication PMC12815711.
Results are given in words; binding and its absence hold for the method and conditions named. In cells and extracts the contact can be indirect. Some results given as binding are weak or reduced against the parent protein; the word gives no strength.

Sequences of proteins named here, by UniProt entry; tags and fusion partners are left off.
UniProt O00567: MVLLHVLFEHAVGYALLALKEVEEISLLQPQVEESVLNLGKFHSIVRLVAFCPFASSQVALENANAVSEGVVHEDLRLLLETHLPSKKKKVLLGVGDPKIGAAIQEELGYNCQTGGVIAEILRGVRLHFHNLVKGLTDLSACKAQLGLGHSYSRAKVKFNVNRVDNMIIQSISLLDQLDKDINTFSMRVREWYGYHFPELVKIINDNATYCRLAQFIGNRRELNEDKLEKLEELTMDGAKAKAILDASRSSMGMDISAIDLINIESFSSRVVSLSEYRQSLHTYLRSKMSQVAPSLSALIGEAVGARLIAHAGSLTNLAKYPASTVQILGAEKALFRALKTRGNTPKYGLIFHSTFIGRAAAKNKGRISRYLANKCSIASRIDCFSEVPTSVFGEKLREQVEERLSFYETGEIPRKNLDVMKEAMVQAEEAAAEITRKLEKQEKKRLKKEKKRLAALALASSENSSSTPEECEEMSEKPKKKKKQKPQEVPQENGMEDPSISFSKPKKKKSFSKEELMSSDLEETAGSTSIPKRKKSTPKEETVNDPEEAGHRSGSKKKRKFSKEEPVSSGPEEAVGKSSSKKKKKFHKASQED

T1: Fibrillarin (FBL) (human (endogenous in HCC cells)) (UniProt P22087)
T1 sequence: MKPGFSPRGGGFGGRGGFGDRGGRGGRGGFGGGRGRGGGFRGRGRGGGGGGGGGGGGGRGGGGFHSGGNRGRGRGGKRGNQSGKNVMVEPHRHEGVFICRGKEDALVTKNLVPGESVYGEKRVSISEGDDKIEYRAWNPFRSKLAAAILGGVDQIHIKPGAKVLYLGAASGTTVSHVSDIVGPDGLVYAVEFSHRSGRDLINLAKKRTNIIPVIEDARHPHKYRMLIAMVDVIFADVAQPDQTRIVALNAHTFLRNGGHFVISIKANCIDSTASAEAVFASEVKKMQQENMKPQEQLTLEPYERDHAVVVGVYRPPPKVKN

B1: Fibrillarin (FBL) (protein, UniProt P22087 1-321)
chain: MKPGFSPRGGGFGGRGGFGDRGGRGGRGGFGGGRGRGGGFRGRGRGGGGGGGGGGGGGRGGGGFHSGGNRGRGRGGKRGNQSGKNVMVEPHRHEGVFICRGKEDALVTKNLVPGESVYGEKRVSISEGDDKIEYRAWNPFRSKLAAAILGGVDQIHIKPGAKVLYLGAASGTTVSHVSDIVGPDGLVYAVEFSHRSGRDLINLAKKRTNIIPVIEDARHPHKYRMLIAMVDVIFADVAQPDQTRIVALNAHTFLRNGGHFVISIKANCIDSTASAEAVFASEVKKMQQENMKPQEQLTLEPYERDHAVVVGVYRPPPKVKN

How the values were obtained:
[1] = molecular target: T1, Fibrillarin (FBL) (human (endogenous in HCC cells)); test: co-IP; HCC cell lysates in IP buffer with protease inhibitors, pre-cleared with Protein A/G beads, incubated overnight at 4°C with anti-NOP56 or anti-FBL antibodies; SDS-PAGE, silver staining and reciprocal Western blotting
[2] = molecular target: Nucleolar protein 5A (NOP56) (human (endogenous in HCC cells)) (UniProt O00567); test: as above

Row | Molecule | binding [1] | binding [2]
1 | Nucleolar protein 5A (NOP56) (from UniProt O00567 1-594) | binds | –
2 | B1 | – | binds
